“Also recorded” adds a separate entry of the source.
Test system: −13CYP3A4/lacZ transgene
Test: β-galactosidase activity in total liver lysates, ONPG assay, line 9/4
Format: in vivo, mouse

Structure (SMILES): C[C@@H]1C[C@H]2[C@@H]3CCC4=CC(=O)C=C[C@]4(C)[C@@]3(F)[C@@H](O)C[C@]2(C)[C@@]1(O)C(=O)COP(=O)(O)O [dexamethasone, dexamethasone phosphate]
- relative degree of induction of transgene, β-galactosidase activity in liver lysates (line 9/4, 100 mg/kg i.p. daily for 4 days, FIG. 3A, 100 mg/kg): most potent xenobiotic activators; also recorded: most potent inducers
- dose response of transgene expression, β-galactosidase activity in liver homogenates (male mice line 9/4, 1 to 100 mg/kg, FIG. 4A): increased β-galactosidase activity; also recorded: dose-dependent
